The list shows a part of the results.

By UniProt entry, the sequences of proteins in these tests, tags left out. Where a name states a change or a piece, a line headed by the entry shows the natural chain unless it says otherwise.
UniProt Q9NRP2: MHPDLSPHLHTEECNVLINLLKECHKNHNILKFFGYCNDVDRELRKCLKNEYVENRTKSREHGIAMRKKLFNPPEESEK
UniProt Q9NX76: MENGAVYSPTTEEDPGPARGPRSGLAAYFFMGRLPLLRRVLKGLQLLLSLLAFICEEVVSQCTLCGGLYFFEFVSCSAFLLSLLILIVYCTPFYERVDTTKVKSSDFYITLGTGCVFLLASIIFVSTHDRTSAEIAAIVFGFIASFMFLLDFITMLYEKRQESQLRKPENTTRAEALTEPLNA
UniProt Q9BT09: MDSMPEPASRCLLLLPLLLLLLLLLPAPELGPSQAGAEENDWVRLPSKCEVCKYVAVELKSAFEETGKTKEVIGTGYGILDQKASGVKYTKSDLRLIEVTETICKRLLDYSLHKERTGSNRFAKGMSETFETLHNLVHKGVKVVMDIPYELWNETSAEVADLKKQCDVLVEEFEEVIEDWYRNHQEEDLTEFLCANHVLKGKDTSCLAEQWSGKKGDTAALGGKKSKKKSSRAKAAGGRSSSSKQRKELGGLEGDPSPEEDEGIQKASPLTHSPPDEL
UniProt Q99828: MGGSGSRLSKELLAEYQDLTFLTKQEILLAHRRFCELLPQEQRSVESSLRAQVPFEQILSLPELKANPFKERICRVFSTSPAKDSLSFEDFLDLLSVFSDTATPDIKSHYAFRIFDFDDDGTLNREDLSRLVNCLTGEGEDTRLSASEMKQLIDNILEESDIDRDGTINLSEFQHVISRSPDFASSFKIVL
UniProt Q9H6Q4: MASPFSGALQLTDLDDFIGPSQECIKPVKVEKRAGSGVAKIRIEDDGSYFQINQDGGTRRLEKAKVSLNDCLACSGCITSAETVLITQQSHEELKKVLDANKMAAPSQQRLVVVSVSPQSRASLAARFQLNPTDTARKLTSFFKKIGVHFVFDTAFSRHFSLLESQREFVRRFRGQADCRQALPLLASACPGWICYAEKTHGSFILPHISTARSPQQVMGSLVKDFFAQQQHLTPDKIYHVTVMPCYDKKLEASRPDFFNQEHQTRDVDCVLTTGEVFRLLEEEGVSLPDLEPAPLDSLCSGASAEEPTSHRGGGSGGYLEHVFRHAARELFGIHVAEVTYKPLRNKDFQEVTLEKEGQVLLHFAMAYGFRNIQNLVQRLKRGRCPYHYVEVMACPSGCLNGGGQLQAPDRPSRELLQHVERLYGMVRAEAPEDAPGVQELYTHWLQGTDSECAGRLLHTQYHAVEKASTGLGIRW
UniProt Q9GZY4: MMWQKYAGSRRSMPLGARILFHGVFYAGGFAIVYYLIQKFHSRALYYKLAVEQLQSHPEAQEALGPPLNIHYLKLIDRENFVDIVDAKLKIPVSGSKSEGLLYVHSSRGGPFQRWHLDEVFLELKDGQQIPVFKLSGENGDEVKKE
UniProt Q9Y2B0: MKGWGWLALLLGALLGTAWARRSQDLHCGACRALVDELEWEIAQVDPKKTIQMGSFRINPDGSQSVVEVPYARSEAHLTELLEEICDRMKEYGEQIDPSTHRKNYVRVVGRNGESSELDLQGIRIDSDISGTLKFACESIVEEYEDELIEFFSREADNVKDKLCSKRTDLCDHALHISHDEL
UniProt Q9NZ45: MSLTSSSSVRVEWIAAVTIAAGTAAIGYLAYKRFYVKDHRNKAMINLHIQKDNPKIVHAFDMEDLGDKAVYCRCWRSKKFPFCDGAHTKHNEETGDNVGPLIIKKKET
UniProt Q9H9A5, whole entry, looked up: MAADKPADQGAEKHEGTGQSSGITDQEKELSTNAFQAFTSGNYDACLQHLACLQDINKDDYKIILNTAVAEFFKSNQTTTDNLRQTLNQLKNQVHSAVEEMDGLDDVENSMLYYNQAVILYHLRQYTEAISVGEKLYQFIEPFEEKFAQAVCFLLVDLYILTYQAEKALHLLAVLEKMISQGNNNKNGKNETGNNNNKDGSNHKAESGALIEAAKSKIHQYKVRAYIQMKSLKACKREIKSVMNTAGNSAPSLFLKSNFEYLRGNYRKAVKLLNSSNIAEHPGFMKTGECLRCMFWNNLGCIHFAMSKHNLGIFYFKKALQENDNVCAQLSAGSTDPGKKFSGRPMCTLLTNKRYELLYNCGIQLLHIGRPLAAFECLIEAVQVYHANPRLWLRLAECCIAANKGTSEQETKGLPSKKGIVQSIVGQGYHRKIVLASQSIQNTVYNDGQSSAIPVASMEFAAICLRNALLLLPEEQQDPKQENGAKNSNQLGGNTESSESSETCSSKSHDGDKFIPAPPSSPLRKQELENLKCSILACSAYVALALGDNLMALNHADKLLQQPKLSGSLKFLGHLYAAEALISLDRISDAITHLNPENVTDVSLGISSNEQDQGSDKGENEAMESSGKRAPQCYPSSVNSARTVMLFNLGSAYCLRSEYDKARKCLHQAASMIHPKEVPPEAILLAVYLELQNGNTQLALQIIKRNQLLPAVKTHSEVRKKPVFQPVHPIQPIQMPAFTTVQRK
UniProt Q96BR5: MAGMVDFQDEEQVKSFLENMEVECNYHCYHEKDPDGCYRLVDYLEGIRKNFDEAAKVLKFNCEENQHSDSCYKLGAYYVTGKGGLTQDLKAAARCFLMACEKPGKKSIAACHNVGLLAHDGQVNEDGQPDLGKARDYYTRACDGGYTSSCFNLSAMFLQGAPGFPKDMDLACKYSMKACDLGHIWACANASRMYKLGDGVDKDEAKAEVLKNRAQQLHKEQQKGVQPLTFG
UniProt Q7Z7K0: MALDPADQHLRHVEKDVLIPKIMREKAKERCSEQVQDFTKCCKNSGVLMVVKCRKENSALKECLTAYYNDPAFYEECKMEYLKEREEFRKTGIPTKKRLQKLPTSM
UniProt Q8WUX9: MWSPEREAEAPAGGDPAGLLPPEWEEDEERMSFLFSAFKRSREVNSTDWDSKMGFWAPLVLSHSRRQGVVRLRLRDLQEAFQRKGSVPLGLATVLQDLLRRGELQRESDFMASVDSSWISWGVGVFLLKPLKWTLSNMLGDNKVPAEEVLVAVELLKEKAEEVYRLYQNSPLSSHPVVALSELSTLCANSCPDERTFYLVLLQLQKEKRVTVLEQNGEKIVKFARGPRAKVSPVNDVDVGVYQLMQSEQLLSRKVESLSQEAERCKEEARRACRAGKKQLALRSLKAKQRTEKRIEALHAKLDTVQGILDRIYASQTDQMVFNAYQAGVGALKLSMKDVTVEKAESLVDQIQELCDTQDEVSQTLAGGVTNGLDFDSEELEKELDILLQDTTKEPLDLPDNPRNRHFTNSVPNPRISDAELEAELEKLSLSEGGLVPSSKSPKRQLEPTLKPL
UniProt P0C7P0: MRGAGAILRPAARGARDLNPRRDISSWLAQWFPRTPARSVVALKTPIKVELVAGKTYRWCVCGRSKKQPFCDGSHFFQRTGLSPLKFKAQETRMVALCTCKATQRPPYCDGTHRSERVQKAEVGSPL
UniProt Q8WUH1: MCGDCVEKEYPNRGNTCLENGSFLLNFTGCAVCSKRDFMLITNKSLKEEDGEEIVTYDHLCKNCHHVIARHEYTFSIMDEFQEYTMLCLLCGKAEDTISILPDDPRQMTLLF
UniProt Q92600, whole entry, looked up: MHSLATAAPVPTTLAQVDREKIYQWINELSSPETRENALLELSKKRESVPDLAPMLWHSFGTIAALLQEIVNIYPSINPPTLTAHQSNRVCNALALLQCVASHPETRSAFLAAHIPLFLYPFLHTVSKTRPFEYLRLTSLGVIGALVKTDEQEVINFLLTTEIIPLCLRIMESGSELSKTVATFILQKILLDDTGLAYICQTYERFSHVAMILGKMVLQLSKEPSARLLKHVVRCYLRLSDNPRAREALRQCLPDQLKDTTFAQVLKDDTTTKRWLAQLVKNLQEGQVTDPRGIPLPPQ
UniProt Q8NFW8: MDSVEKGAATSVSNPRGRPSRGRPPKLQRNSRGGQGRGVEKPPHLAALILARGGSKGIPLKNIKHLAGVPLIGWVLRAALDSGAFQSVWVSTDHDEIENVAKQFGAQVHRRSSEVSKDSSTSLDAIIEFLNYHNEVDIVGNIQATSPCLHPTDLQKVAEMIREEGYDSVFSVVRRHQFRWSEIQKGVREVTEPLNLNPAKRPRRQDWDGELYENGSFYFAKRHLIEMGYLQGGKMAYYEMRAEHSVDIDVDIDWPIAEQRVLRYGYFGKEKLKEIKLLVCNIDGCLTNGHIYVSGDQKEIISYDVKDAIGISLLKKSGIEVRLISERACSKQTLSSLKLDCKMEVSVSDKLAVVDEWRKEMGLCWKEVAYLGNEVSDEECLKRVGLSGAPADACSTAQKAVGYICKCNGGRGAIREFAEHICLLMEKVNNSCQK
UniProt P09543: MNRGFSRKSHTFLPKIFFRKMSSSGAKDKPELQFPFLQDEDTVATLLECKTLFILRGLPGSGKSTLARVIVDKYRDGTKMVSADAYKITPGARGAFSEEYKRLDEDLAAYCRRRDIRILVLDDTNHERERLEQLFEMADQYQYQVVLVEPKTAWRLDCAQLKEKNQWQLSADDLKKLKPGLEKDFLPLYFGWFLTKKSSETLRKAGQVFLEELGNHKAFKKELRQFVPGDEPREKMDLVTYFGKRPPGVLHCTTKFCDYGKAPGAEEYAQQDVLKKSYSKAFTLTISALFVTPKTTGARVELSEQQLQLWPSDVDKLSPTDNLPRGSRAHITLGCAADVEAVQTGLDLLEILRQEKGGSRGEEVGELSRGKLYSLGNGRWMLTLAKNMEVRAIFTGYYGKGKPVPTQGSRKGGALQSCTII
UniProt P06732: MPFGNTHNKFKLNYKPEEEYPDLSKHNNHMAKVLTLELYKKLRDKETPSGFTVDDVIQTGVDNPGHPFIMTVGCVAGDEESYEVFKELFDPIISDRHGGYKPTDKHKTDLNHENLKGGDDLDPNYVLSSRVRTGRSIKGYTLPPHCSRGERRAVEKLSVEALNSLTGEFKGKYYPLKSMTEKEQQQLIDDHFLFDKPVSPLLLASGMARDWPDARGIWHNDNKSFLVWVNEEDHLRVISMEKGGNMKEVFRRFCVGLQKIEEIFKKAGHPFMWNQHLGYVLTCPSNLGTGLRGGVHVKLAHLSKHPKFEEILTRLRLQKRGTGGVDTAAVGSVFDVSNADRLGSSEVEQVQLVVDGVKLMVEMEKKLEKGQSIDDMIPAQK
UniProt Q8NE01: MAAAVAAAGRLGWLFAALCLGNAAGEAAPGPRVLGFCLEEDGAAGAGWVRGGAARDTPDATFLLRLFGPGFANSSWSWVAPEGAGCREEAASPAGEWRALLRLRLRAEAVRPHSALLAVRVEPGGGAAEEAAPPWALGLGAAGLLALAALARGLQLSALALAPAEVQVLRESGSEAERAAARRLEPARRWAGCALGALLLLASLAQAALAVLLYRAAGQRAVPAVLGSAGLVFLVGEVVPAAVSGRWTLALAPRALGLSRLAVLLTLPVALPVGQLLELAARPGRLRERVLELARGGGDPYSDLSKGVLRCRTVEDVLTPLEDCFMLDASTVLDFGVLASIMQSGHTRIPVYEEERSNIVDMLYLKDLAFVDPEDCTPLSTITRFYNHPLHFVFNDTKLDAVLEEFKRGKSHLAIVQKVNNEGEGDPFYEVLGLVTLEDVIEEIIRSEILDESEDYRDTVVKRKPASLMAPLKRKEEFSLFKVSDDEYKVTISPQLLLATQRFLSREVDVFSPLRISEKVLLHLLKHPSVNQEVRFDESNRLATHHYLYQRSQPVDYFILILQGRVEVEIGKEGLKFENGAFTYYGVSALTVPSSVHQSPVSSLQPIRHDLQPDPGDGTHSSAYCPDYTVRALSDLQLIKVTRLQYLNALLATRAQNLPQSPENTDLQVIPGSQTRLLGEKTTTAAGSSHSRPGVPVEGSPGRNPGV
UniProt Q6P4Q7: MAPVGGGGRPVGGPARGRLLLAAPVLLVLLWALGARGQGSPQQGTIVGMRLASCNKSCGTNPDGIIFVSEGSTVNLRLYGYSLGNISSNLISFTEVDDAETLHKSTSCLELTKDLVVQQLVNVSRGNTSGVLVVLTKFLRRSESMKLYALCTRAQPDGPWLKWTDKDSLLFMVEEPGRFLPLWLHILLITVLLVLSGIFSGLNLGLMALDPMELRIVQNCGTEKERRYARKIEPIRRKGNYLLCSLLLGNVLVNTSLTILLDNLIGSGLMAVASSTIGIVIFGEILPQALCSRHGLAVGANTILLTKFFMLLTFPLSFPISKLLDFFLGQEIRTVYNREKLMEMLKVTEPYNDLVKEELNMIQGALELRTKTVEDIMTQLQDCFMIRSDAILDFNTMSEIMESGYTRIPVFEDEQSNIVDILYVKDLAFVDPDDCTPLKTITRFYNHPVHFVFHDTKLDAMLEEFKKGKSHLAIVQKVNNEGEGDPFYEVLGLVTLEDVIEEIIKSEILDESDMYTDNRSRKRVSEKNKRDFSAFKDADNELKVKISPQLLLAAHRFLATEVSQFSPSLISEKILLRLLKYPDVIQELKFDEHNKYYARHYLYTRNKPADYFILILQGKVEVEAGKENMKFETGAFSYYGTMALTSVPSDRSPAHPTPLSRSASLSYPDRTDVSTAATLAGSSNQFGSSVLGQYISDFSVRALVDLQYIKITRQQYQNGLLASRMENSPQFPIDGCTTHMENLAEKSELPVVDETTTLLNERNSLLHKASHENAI
UniProt Q8N5K1: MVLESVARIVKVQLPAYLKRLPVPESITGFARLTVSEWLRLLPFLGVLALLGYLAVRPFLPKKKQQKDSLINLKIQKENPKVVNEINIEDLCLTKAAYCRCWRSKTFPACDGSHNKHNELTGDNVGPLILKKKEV

Compound in the first test: C1=CC(=CC=C1C2=NC3=C(N2)C=C(C=C3)C(=O)N)OC4=CC=C(C=C4)Cl
Briefly: log2 fold change, soluble protein after heating vs DMSO (PISA); higher = thermal stabilisation; K562 cells, 10 uM, 30 min; active = over 0.2 and 3.5 SD of the protein, either way, in both replicates (recomputed). The essentials: (§1)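 K562 cells at 2×10^6 cells/mL were given 10 μM compound for 30 min. Aliquots then went through 3 min of heating across 48°C-58°C, were pooled, and were extracted in PBS with 0.5% NP-40 at 4°C, and the supernatant after 21,000xg for 90 min was quantified by TMTpro 16plex LC-MS/MS with channel sums equalised. Thermal stability relative to control samples, from duplicates, is given as log2 fold change.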
On to CMC2 (UniProt Q9NRP2), for which the log2 fold change was inactive: -0.027.
Turning to CMTM6 (UniProt Q9NX76), the log2 fold change was inactive: 0.099.
On to CNPY3 (UniProt Q9BT09), for which the log2 fold change was inactive: -0.031.
In the case of CIB1 isoform 2 (UniProt Q99828), the log2 fold change is inactive: 0.015.
Same read-out and setting: as for CNST (UniProt Q6PJW8), the figure is inactive: 0; as for CIAO3 (UniProt Q9H6Q4), inactive: -0.001.
Regarding CNOT11 (UniProt Q9UKZ1), the log2 fold change is inactive: 0.025.
With COA1 (UniProt Q9GZY4), the log2 fold change was inactive: -0.002.
Still for that read-out and setting: in the case of CNPY2 (UniProt Q9Y2B0) it was inactive: -0.037; in that of CISD1 (UniProt Q9NZ45), inactive: 0.022.
Same read-out and setting: as for CNOT6L (UniProt Q96LI5), the figure is inactive: 0.038.
On to CNOT10 isoform 6 (UniProt Q9H9A5), for which the log2 fold change is inactive: 0.01.
CNOT3 (UniProt O75175): the log2 fold change was inactive: -0.01.
COA7 (UniProt Q96BR5): the log2 fold change was inactive: 0.014.
As for CNTNAP4 (UniProt Q9C0A0), the log2 fold change was inactive: 0.08.
Same read-out and setting: as for CMC1 (UniProt Q7Z7K0), the figure is inactive: 0.018; as for CHMP7 (UniProt Q8WUX9), inactive: -0.087.
For the target CISD3 (UniProt P0C7P0), the log2 fold change is inactive: 0.119.
The same measure, in the same setting: in the case of CHURC1 isoform 2 (UniProt Q8WUH1) it was inactive: 0; in that of CNOT9 isoform 2 (UniProt Q92600), inactive: -0.01.
On the same count and under the same terms, as for CKMT2 (UniProt P17540), the figure is inactive: -0.023; as for COL1A2 (UniProt P08123), inactive: 0.145.
For CMAS (UniProt Q8NFW8), the log2 fold change is inactive: 0.025.
For the target CNP (UniProt P09543), the log2 fold change was inactive: -0.014.
As to CHORDC1 (UniProt Q9UHD1), the log2 fold change is inactive: 0.034.
On the same count and under the same terms, as for CKM (UniProt P06732), the figure is inactive: 0.023; as for CNNM3 (UniProt Q8NE01), inactive: 0.008.
With CNNM4 (UniProt Q6P4Q7), the log2 fold change was inactive: 0.049.
As to CHST14 (UniProt Q8NCH0), the log2 fold change was inactive: -0.016.
The same measure, in the same setting: in the case of CKAP5 (UniProt Q14008) it was inactive: -0.038.
For CISD2 (UniProt Q8N5K1), the log2 fold change was inactive: -0.018.
In the case of CKMT1A (UniProt P12532), the log2 fold change was inactive: 0.034.

Compound in another test: C1=CC2=C(C=CC(=C2)/C=C\3/C(=O)NC(=NCC4=CC=CS4)S3)N=C1
The test is described as above. The essentials:
as §1
Consider CMC2 (UniProt Q9NRP2), for which the log2 fold change is inactive: -0.045.
CMTM6 (UniProt Q9NX76): the log2 fold change was inactive: 0.076.
Consider CNPY3 (UniProt Q9BT09), for which the log2 fold change is inactive: 0.038.
CIB1 isoform 2 (UniProt Q99828): the log2 fold change is inactive: 0.05.
For the target CNST (UniProt Q6PJW8), the log2 fold change was inactive: 0.004.
With CIAO3 (UniProt Q9H6Q4), the log2 fold change was inactive: 0.063.
In the case of CNOT11 (UniProt Q9UKZ1), the log2 fold change is inactive: 0.081.
With COA1 (UniProt Q9GZY4), the log2 fold change is inactive: 0.043.
Still for that read-out and setting: as for CNPY2 (UniProt Q9Y2B0), the figure is inactive: 0.06.
As for CISD1 (UniProt Q9NZ45), the log2 fold change is inactive: -0.021.
Take CNOT6L (UniProt Q96LI5): the log2 fold change is inactive: -0.05.
On the same count and under the same terms, in the case of CNOT10 isoform 6 (UniProt Q9H9A5) it was inactive: 0.04; in that of CNOT3 (UniProt O75175), inactive: 0.
With COA7 (UniProt Q96BR5), the log2 fold change is inactive: -0.031.
On to CNTNAP4 (UniProt Q9C0A0), for which the log2 fold change was inactive: -0.102.
Regarding CMC1 (UniProt Q7Z7K0), the log2 fold change is inactive: -0.223.
The same measure, in the same setting: in the case of CHMP7 (UniProt Q8WUX9) it was inactive: 0.106.
As for CISD3 (UniProt P0C7P0), the log2 fold change is inactive: -0.074.
For CHURC1 isoform 2 (UniProt Q8WUH1), the log2 fold change was inactive: 0.096.
Take CNOT9 isoform 2 (UniProt Q92600): the log2 fold change is inactive: 0.004.
In the case of CKMT2 (UniProt P17540), the log2 fold change was inactive: 0.013.
Consider COL1A2 (UniProt P08123), for which the log2 fold change was inactive: 0.101.
In the case of CMAS (UniProt Q8NFW8), the log2 fold change is inactive: -0.016.
For the target CNP (UniProt P09543), the log2 fold change is inactive: -0.005.
Take CHORDC1 (UniProt Q9UHD1): the log2 fold change was inactive: 0.008.
Regarding CKM (UniProt P06732), the log2 fold change is inactive: 0.066.
Turning to CNNM3 (UniProt Q8NE01), the log2 fold change was inactive: 0.05.
Same read-out and setting: as for CNNM4 (UniProt Q6P4Q7), the figure is inactive: -0.046.
With CHST14 (UniProt Q8NCH0), the log2 fold change is inactive: 0.01.
As for CKAP5 (UniProt Q14008), the log2 fold change is inactive: 0.061.
CISD2 (UniProt Q8N5K1): the log2 fold change is inactive: -0.009.
Take CKMT1A (UniProt P12532): the log2 fold change is inactive: 0.005.

Compound in a further test: C1=CC2=NC=CN=C2C=C1/C=C/3\C(=O)NC(=O)S3
The description is as above. In outline:
as §1
On to CMC2 (UniProt Q9NRP2), for which the log2 fold change was inactive: 0.009.
The same measure, in the same setting: in the case of CMTM6 (UniProt Q9NX76) it was inactive: -0.018; in that of CNPY3 (UniProt Q9BT09), inactive: -0.014; in that of CIB1 isoform 2 (UniProt Q99828), inactive: -0.005.
In the case of CNST (UniProt Q6PJW8), the log2 fold change was inactive: 0.101.
As for CIAO3 (UniProt Q9H6Q4), the log2 fold change is inactive: -0.014.
In the case of CNOT11 (UniProt Q9UKZ1), the log2 fold change was inactive: -0.007.
Take COA1 (UniProt Q9GZY4): the log2 fold change was inactive: 0.039.
Regarding CNPY2 (UniProt Q9Y2B0), the log2 fold change was inactive: 0.046.
CISD1 (UniProt Q9NZ45): the log2 fold change was inactive: 0.021.
For the target CNOT6L (UniProt Q96LI5), the log2 fold change was inactive: -0.145.
As to CNOT10 isoform 6 (UniProt Q9H9A5), the log2 fold change is inactive: 0.01.
As for CNOT3 (UniProt O75175), the log2 fold change was inactive: -0.011.
Take COA7 (UniProt Q96BR5): the log2 fold change is inactive: 0.056.
In the case of CNTNAP4 (UniProt Q9C0A0), the log2 fold change was inactive: 0.011.
On to CMC1 (UniProt Q7Z7K0), for which the log2 fold change was inactive: 0.068.
For the target CHMP7 (UniProt Q8WUX9), the log2 fold change was inactive: 0.134.
As for CISD3 (UniProt P0C7P0), the log2 fold change is inactive: -0.064.
Consider CHURC1 isoform 2 (UniProt Q8WUH1), for which the log2 fold change was inactive: 0.02.
As to CNOT9 isoform 2 (UniProt Q92600), the log2 fold change was inactive: 0.033.
Regarding CKMT2 (UniProt P17540), the log2 fold change is inactive: -0.169.
With COL1A2 (UniProt P08123), the log2 fold change is inactive: 0.
Still for that read-out and setting: in the case of CMAS (UniProt Q8NFW8) it was inactive: 0.033; in that of CNP (UniProt P09543), inactive: 0.006; in that of CHORDC1 (UniProt Q9UHD1), inactive: -0.004.
For the target CKM (UniProt P06732), the log2 fold change is inactive: -0.016.
For the target CNNM3 (UniProt Q8NE01), the log2 fold change is inactive: 0.003.
With CNNM4 (UniProt Q6P4Q7), the log2 fold change is inactive: 0.018.
Regarding CHST14 (UniProt Q8NCH0), the log2 fold change was inactive: 0.083.
On to CKAP5 (UniProt Q14008), for which the log2 fold change was inactive: -0.007.
Take CISD2 (UniProt Q8N5K1): the log2 fold change is inactive: 0.03.
Turning to CKMT1A (UniProt P12532), the log2 fold change was inactive: 0.023.

For the origin of these results see the supplement of paper PMC10849652.
